{
  "source": "paper PMC9894555",
  "binders": {"B1": {"name": "Dfm1-HA (protein, UniProt Q12743 1-341)", "chain": "MAGPRNVRTLHGNGGRNNDVMGPKEFWLNIPPITRTLFTLAIVMTIVGRLNLINPWYFIYVWNLTFKKVQIWRLLTSCVMLSSRAMPALMELYSIYDRSSQLERGHFGPGLSNRRGPMVTVDYAYYLCFCILAITTATTIIYGSYYPVVLTSGFISCITYTWSIDNANVQIMFYGLIPVWGKYFPLIQLFISFVFNEGDFVISLIGFTTGYLYTCLDTHTLGPIWGMISRKADPTYGISPNGKFSTPWWFTSLYARITGAHNETATFNNNFANVPSSQRETRTFSGRGQRLGTAPATLSQTSGTDSGRASGSQLRSGPSNLNQFQGRGQRVGQTNSPSDSQ"}},
  "biological_target": "T1, Hmg2-GFP (yeast (strains derived from S288C or Resgen)) (UniProt P12684)",
  "T1 sequence": "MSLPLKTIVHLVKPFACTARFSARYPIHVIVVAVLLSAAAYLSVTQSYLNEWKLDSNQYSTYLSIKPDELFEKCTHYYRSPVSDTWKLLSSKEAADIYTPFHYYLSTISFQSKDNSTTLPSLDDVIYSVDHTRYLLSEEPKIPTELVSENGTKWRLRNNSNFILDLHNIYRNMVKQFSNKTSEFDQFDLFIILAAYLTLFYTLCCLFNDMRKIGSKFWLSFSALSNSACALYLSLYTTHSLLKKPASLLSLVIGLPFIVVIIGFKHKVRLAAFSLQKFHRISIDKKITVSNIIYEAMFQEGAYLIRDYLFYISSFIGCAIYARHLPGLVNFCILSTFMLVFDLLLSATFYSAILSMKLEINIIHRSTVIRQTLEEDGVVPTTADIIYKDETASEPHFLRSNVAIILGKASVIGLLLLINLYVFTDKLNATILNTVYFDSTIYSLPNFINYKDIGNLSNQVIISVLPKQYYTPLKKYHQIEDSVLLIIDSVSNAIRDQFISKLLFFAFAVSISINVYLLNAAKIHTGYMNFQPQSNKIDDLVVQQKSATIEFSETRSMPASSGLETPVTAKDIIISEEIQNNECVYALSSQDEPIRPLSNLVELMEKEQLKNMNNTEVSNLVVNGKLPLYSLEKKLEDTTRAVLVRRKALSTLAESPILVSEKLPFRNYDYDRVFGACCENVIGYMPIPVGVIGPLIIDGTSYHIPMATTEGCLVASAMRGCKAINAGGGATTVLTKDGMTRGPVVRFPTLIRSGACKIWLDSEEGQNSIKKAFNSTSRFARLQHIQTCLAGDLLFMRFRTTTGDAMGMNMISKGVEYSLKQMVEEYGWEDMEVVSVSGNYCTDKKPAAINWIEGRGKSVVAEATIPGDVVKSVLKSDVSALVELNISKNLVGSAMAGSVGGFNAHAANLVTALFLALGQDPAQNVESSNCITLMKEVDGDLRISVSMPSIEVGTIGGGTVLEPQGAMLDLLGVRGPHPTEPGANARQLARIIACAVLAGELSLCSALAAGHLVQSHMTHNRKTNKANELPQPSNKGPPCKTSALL",
  "assay": "co-IP; yeast microsomes solubilised in 1% DDM in XL buffer (1 h, 4°C), cleared by centrifugation and ultracentrifugation; supernatant incubated overnight at 4°C with GFP-Trap agarose to capture Hmg2-GFP; immunoblot with anti-GFP, anti-HA and anti-Sec61; cells not expressing Hmg2-GFP as negative control",
  "note": "Results are given in words; binding and its absence hold for the method and conditions named. In cells and extracts the contact can be indirect. Some entries that bind do so weakly or less than the wild type. Sequences can lack the tags named with a protein.",
  "data": [
    {"binder": "B1", "values": [
      {"measurement": "binding", "value": "binds"}
    ]}
  ]
}
